The text below walks through data of paper doi:10.1101/2023.05.30.542914 (bioRxiv, 2023).

These are yes or no findings as the source states them, for the method shown. Binding seen in cells or lysates may run through a third protein. A yes stands for co-enrichment or nearness to the bait. Other partners may have been found. No binding means not detected with the bait. Tags and fused reporters may be left off the sequences shown.

The target in one experiment is T1, myc-tagged Wnt7a-BirA (UniProt O00755).
T1 sequence: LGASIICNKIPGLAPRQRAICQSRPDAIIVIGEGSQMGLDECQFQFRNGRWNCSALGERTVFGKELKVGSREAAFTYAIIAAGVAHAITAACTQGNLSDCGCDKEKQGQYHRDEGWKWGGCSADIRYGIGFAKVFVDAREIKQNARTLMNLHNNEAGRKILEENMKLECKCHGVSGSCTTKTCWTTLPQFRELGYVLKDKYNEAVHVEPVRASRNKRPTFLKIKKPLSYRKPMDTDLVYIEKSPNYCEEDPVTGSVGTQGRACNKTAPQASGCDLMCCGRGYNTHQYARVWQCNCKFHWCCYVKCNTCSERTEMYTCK
Put plainly: proximity labelling.

A further experiment has as its target T2, myc-tagged EBP-BirA.
T2 sequence: PVRASRNKRPTFLKIKKP
The experiment is described as follows: proximity labelling.

B1: WLS (protein, UniProt Q6DID7 1-541)
chain: MAGAIIENMSTKKLCIVGGILLVFQIVAFLVGGLIAPAPTTAVPYTAIKCVDVRKNHHKTRWLAPWGPNKCDKIRDIEEAIPREIEANDIVFSVHIPLPSMEMSPWFQFMLFILQLDIAFKLNNQIRENAEISMDVSLGYRDDMFSEWTEMAHERVPRKLKCTFTSPKTPEHEGRYYNCDVLPFMEIGSVAHKYYLLNIRLPVNEKKKINVGIGEIKDIRLVGIHQNGGFTKVWFAMKTFLTPSIFIIMVWYWRRITMMSRPPVLLEKVIFALGISMTFINIPVEWFSIGFDWTWMLLFGDIRQGIFYAMLLSFWIIFCGEHMMDQHERNHIAGYWKQVGPIAVGSFCLFIFDMCERGVQLTNPFYSIWTTDVGTELAMAFIIVAGICLCLYFLFLCFMVFQVFRNISGKQSSLPAMSKVRRLHYEGLIFRFKFLMLITLACAAMTVIFFIVSQVSEGHWKWGGVTVQVSSAFFTGIYGMWNLYVFALMFLYAPSHKNYGEDQSNGDLGVHSGEELQLTTTITHVDGPTEIYKLTRKEAQE
In the case of B1, the binding entry in the experiment with myc-tagged Wnt7a-BirA is given as “no binding”.

B2: COPA (mouse) (protein, UniProt Q8CIE6)
chain: MLTKFETKSARVKGLSFHPKRPWILTSLHNGVIQLWDYRMCTLIDKFDEHDGPVRGIDFHKQQPLFVSGGDDYKIKVWNYKLRRCLFTLLGHLDYIRTTFFHHEYPWILSASDDQTIRVWNWQSRTCVCVLTGHNHYVMCAQFHPSEDLVVSASLDQTVRVWDISGLRKKNLSPGAVESDVRGITGVDLFGTTDAVVKHVLEGHDRGVNWAAFHPTMPLIVSGADDRQVKIWRMNESKAWEVDTCRGHYNNVSCAVFHPRQELILSNSEDKSIRVWDMSKRTGVQTFRRDHDRFWVLAAHPNLNLFAAGHDGGMIVFKLERERPAYAVHGNMLHYVKDRFLRQLDFNSSKDVAVMQLRSGSKFPVFNMSYNPAENAVLLCTRASNLENSTYDLYTIPKDADSQNPDAPEGKRSSGLTAVWVARNRFAVLDRMHSLLIKNLKNEITKKIQVPNCDEIFYAGTGNLLLRDADSITLFDVQQKRTLASVKISKVKYVIWSADMSHVALLAKHAIVICNRKLDALCNIHENIRVKSGAWDESGVFIYTTSNHIKYAVTTGDHGIIRTLDLPIYVTRVKGNNVYCLDRECRPRVLTIDPTEFKFKLALINRKYDEVLHMVRNAKLVGQSIIAYLQKKGYPEVALHFVKDEKTRFSLALECGNIEIALEAAKALDDKNCWEKLGEVALLQGNHQIVEMCYQRTKNFDKLSFLYLITGNLEKLRKMMKIAEIRKDMSGHYQNALYLGDVSERVRILKNCGQKSLAYLSAATHGLDEEAESLKETFDPEKETIPDIDPNAKLLQPPAPIMPLDTNWPLLTVSKGFFEGSIASKGKGGALAADIDIDTVGTEGWGEDAELQLDEDGFVEAPEGLGEDVLGKGQEEGGGWDVEEDLELPPELDVPSGVSGSAEDGFFVPPTKGTSPTQIWCNNSQLPVDHILAGSFETAMRLLHDQVGVIQFGPYKQLFLQTYARGRTTYQALPCLPSMYSYPNRNWKDAGLKNGVPAVGLKLNDLIQRLQLCYQLTTVGKFEEAVEKFRSILLSVPLLVVDNKQEIAEAQQLITICREYIVGLCMEIERKKLPKETLDQQKRICEMAAYFTHSNLQPVHMILVLRTALNLFFKLKNFKTAATFARRLLELGPKPEVAQQTRKILSACEKNPTDACQLNYDMHNPFDICAASYRPIYRGKPVEKCPLSGACYSPEFKGQICRVTTVTEIGKDVIGLRISPLQFR
Consider B2, for which the binding entry with myc-tagged EBP-BirA and with myc-tagged Wnt7a-BirA was “binds” in each case.

B3: COPB2 (mouse) (protein, UniProt O55029 1-905)
chain: MPLRLDIKRKLTARSDRVKSVDLHPTEPWMLASLYNGSVCVWNHETQTLVKTFEVCDLPVRAAKFVARKNWVVTGADDMQIRVFNYNTLERVHMFEAHSDYIRCIAVHPTQPFILTSSDDMLIKLWDWDKKWSCSQVFEGHTHYVMQIVINPKDNNQFASASLDRTIKVWQLGSSSPNFTLEGHEKGVNCIDYYSGGDKPYLISGADDRLVKIWDYQNKTCVQTLEGHAQNVSCASFHPELPIIITGSEDGTVRIWHSSTYRLESTLNYGMERVWCVASLRGSNNVALGYDEGSIIVKLGREEPAMSMDANGKIIWAKHSEVQQANLKAMGDTEIKDGERLPLAVKDMGSCEIYPQTIQHNPNGRFVVVCGDGEYIIYTAMALRNKSFGSAQEFAWAHDSSEYAIRESNSIVKIFKNFKEKKSFKPDFGAESIYGGFLLGVRSVNGLAFYDWENTELIRRIEIQPKHIFWSDSGELVCIATEESFFILKYLSEKVLAAQETHEGVTEDGIEDAFEVLGEIQEIVKTGLWVGDCFIYTSSVNRLNYYVGGEIVTIAHLDRTMYLLGYIPKDNRLYLGDKELNIVSYSLLVSVLEYQTAVMRRDFSMADKVLPTIPKEQRTRVAHFLEKQGFKQQALTVSTDPEHRFELALQLGELKIAYQLAVEAESEQKWKQLAELAISKCQFSLAQECLHHAQDYGGLLLLATASGNASMVNKLAEGAERDGKNNVAFMSYFLQGKLDACLELLIRTGRLPEAAFLARTYLPSQVSRVVKLWRENLSKVNQKAAESLADPTEYENLFPGLKEAFVVEEWVKETHADLWPAKQYPLVTPNEERNVMEEAKGFQPSRPTAQQEPDGKPASSPVIMASQTTHKEEKSLLELEVDLDNLELEDIDTTDINLDEDILDD
B3: the binding entry with myc-tagged EBP-BirA and with myc-tagged Wnt7a-BirA was “binds” in each case.

B4: Reck (receptor, UniProt Q9Z0J1 23-942)
chain: EVTGGLAPGSAGAVCCNHSKDNQMCRDVCEQIFSSKSESRLKHLLQRAPDYCPETMVEIWSCMNSSLPGVFKKSDGWVGLGCCELAIGLECRQACKQASSKNDISKVCRKEYENALFSCISRNEMGSVCCSYAGHHTNCREFCQAIFRTDSSPGPSQIKAVENYCASISPQLIHCVNNYTQSYPMRNPTDSLYCCDRAEDHACQNACKRILMSKKTEMEIVDGLIEGCKTQPLPQDPLWQCFLESSQSVHPGVTVHPPPSTGLDGAKLHCCSKANTSTCRELCTKLYSMSWGNTQSWQEFDRICEYNPVEVSMLTCLADVREPCQLGCTNLTYCTNFNNRPTELFRSCTAQSDQGAMSDMKLWEKGSIKMPFISIPVLDIKTCQPEMWKAVACSLQIKPCHSKSRGSIICKSDCVEILKKCGDQNKFPEEHTAESICEFLSPADDLESCIPLDTYLRPSALGNIIEEVTHPCNPNPCPANELCEVNRKGCPSADPCLPYSCVQGCKLGEASDFIVRQGTLIQVPSSAGEVGCYKICSCGQSGLLENCMEMHCIDLQKSCIVGGKRKSHGTSFTIDCNVCSCFAGNLVCSTRLCLSEHSSDDDRRTFTGLPCNCADQFVPVCAQNGRTYPSACIARCVGLQDHQFEFGPCISKNPCNPNLCPKSQRCVPKPQVCLTTFDKFGCSQYECVPRQLTCDQARDPVCDTDHMEHSNLCTLYQRGKSLSYRGPCQPFCRAKEPVCGHNGETYSSVCAAYSDRVAVDYYGPCQAVGVLSEYSAVAECAAVKCPSLSAIGCKPIIPPGACCPLCAGMLRVLFDKEKLDTIAKVTSKKPITVVEILQKVRMHVSVPQCDVFGYLSIESEIVILIIPVDHYPKALQIEACNKEAEKIESLINSDSPTLASHVPLSALIISQVQVSSSLPS
Regarding B4, the binding result in the experiment with myc-tagged EBP-BirA and in the experiment with myc-tagged Wnt7a-BirA was “no binding” throughout.
